These results are taken from PMC10978942.

The target in this test is T1, ACE1-BD (ACE1 fused with the GAL4 DNA-binding domain) (Trichoderma reesei) (UniProt Q9P8W3).
T1 sequence: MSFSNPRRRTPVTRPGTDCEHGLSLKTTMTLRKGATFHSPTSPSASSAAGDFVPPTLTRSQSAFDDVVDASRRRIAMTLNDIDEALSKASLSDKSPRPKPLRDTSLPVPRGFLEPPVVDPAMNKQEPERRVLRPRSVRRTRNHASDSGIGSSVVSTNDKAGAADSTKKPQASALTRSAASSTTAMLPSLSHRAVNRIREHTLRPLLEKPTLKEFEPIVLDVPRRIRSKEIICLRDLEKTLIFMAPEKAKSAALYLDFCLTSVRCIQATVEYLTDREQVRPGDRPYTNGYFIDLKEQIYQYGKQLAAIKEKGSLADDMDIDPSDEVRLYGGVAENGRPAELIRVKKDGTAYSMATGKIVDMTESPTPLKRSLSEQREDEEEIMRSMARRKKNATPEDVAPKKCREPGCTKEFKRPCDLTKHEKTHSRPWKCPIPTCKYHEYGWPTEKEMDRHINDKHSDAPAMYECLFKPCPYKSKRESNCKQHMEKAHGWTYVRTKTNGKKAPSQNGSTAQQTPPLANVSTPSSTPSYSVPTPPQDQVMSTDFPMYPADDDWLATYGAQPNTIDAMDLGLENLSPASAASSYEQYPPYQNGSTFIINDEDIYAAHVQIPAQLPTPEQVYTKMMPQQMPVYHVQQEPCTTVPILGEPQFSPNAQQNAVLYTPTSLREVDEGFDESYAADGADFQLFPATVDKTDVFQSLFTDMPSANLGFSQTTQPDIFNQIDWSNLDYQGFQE
Description: two-hybrid; Matchmaker Gold Yeast Two-Hybrid System; trsam or xyr1 on the GAL4 activation domain (pGADT7), regulators on the GAL4 DNA-binding domain (pGBKT7); growth without histidine and adenine, 3-amino-1,2,4-triazole, X-alpha-gal.

No constants are given. Whether binding was seen depends on the method and setting. Some results given as binding are weak or reduced against the parent protein; the word gives no strength. Where a sequence is shown, tags or fusion partners need not be part of it.

B1: XYR1-AD (protein, UniProt G0RLE8 1-920)
chain: MLSNPLRRYSAYPDISSASFDPNYHGSQSHLHSINVNTFGNSHPYPMQHLAQHAELSSSRMIRASPVQPKQRQGSLIAARKNSTGTAGPIRRRISRACDQCNQLRTKCDGLHPCAHCIEFGLGCEYVRERKKRGKASRKDIAAQQAAAAAAQHSGQVQDGPEDQHRKLSRQQSESSRGSAELAQPAHDPPHGHIEGSVSSFSDNGLSQHAAMGGMDGLEDHHGHVGVDPALGRTQLEASSAMGLGAYGEVHPGYESPGMNGHVMVPPSYGAQTTMAGYSGISYAAQAPSPATYSSDGNFRLTGHIHDYPLANGSSPSWGQSDLRYPVLEPLLPHLGNILPVSLACDLIDLYFSSSSSAQMHPMSPYVLGFVFRKRSFLHPTNPRRCQPALLASMLWVAAQTSEASFLTSLPSARSKVCQKLLELTVGLLQPLIHTGTNSPSPKTSPVVGAAALGVLGVAMPGSLNMDSLAGETGAFGAIGSLDDVITYVHLATVVSASEYKGASLRWWGAAWSLARELKLGRELPPGNPPANQEDGEGLSEDVDEHDLNRNNTRFVTEEEREERRRAWWLVYIVDRHLALCYNRPLFLLDSECSDLYHPMDDIKWQAGKFRSHDAGNSSINIDSSMTDEFGDSPRAARGAHYECRGRSIFGYFLSLMTILGEIVDVHHAKSHPRFGVGFRSARDWDEQVAEITRHLDMYEESLKRFVAKHLPLSSKDKEQHEMHDSGAVTDMQSPLSVRTNASSRMTESEIQASIVVAYSTHVMHVLHILLADKWDPINLLDDDDLWISSEGFVTATSHAVSAAEAISQILEFDPGLEFMPFFYGVYLLQGSFLLLLIADKLQAEASPSVIKACETIVRAHEACVVTLSTEYQRNFSKVMRSALALIRGRVPEDLAEQQQRRRELLALYRWTGNGTGLAL
Turning to B1, the binding result is given as “binds”.
